Measured values taken from patent US20220281975A1 (Eli Lilly, published 2022).
No constants are given. Whether binding was seen depends on the method and setting. Some entries that bind do so weakly or less than the wild type.

Target: T1, Human TREM2 R47H (human, UniProt Q9NZC2 19-174, limits assumed)
T1 construct: also called human R47H TREM mutant; R47H TREM
T1 sequence (looked up): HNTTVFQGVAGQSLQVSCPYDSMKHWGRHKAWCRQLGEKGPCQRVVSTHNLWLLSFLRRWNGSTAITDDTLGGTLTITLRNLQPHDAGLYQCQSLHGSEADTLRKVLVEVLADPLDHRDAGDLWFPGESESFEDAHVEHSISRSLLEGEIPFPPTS
Test: SPR (Biacore), 25 C

binding: binds
B1: TREM2 Antibody 1 (antibody, human IgG4 S228P, kappa, F234A L235A, V domains shown)
VH: EVQLVQSGAEVKKPGESLKISCKGSGFSFNTYWIGWVRQMPGKGLEWMGIIYPGDQDIRYSPSFQGQVTISADKSISTAYLQWSSLKASDTAMYYCARYGRYIYGYGGYHGMDVWGQGTTVTVSS
VL: DIQMTQSPSSLSASVGDRVTITCRASQAIRDDLGWYQQKPGKAPKLLIYAASSLQSGVPSRFSGSGSGTDFTLTISSLQPEDFATYYCLQNYNYPHTFGQGTKLEIKR
notes: Human antibody with a kappa light chain
